No constants are given. Whether binding was seen depends on the method and setting. Some entries that bind do so weakly or less than the wild type.
Biological target: tissue-type plasminogen activator, tPA (Genentech) (human) (UniProt P00750)
Assay: cleavage of purified baculovirus BAIT on interaction with tPA; N-terminal sequencing

Chains of the proteins cited; added tags and fusions are not shown. Residues count along the entry.
UniProt P00750, residues 36-562: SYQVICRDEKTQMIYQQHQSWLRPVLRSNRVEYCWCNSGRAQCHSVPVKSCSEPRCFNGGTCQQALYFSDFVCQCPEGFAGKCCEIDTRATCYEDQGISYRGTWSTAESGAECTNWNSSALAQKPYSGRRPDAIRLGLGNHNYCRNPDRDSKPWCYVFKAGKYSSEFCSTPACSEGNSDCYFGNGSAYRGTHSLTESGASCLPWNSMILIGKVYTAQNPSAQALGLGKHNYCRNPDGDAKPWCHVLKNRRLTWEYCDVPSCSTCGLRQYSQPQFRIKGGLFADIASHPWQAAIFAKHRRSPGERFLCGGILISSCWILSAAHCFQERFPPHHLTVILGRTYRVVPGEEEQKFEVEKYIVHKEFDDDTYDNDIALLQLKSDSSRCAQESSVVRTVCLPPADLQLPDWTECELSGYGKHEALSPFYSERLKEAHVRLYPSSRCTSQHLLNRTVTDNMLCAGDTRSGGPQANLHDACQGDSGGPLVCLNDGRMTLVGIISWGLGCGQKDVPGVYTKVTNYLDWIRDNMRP

B1: second species of baculovirus-expressed mature BAIT lacking one additional N-terminal residue (N terminus Thr) (protein)
chain: TFPEEAIADLSVNMYNRLRATGEDENILFSPLSIALAMGMMELGAQGSTQKEIRHSMGYDSLKNGEEFSFLKEFSNMVTAKESQYVMKIANSLFVQNGFHVNEEFLQMMKKYFNAAVNHVDFSQNVAVANYINKWVENNTNNLVKDLVSPRDFDAATYLALINAVYFKGNWKSQFRPENTRTFSFTKDDESEVQIPMMYQQGEFYYGEFSDGSNEAGGIYQVLEIPYEGDEISMMLVLSRQEVPLATLEPLVKAQLVEEWANSVKKQKVEVYLPRFTVEQEIDLKDVLKALGITEIFIKDANLTGLSDNKEIFLSKAIHKSFLEVNEEGSEAAAVSGMIAISRMAVLYPQVIVDHPFFFLIRNRRTGTILFMGRVMHPETMNTSGHDFEEL
modifications: glycosylated (positions not stated)
Question: How did the binding turn out when B1 was run?
Answer: The binding was “binds”.
